{"source": "paper PMC6851102", "binders": {"B1": {"name": "MTA3, human, endogenous, Q9BTC8 1-594 (protein)", "chain": "MAANMYRVGDYVYFENSSSNPYLIRRIEELNKTASGNVEAKVVCFYRRRDISNTLIMLADKHAKEIEEESETTVEADLTDKQKHQLKHRELFLSRQYESLPATHIRGKCSVALLNETESVLSYLDKEDTFFYSLVYDPSLKTLLADKGEIRVGPRYQADIPEMLLEGESDEREQSKLEVKVWDPNSPLTDRQIDQFLVVARAVGTFARALDCSSSVRQPSLHMSAAAASRDITLFHAMDTLYRHSYDLSSAISVLVPLGGPVLCRDEMEEWSASEASLFEEALEKYGKDFNDIRQDFLPWKSLTSIIEYYYMWKTTDRYVQQKRLKAAEAESKLKQVYIPTYSKPNPNQISTSNGKPGAVNGAVGTTFQPQNPLLGRACESCYATQSHQWYSWGPPNMQCRLCAICWLYWKKYGGLKMPTQSEEEKLSPSPTTEDPRVRSHVSRQAMQGMPVRNTGSPKSAVKTRQAFFLHTTYFTKFARQVCKNTLRLRQAARRPFVAINYAAIRAEYADRHAELSGSPLKSKSTRKPLACIIGYLEIHPAKKPNVIRSTPSLQTPTTKRMLTTPNHTSLSILGKRNYSHHNGLDELTCCVSD"}}, "target": "T1, ZEB1, endogenous in human NSCLC cell lines (human (endogenous in H157 and H1299)), P37275", "T1 chain": "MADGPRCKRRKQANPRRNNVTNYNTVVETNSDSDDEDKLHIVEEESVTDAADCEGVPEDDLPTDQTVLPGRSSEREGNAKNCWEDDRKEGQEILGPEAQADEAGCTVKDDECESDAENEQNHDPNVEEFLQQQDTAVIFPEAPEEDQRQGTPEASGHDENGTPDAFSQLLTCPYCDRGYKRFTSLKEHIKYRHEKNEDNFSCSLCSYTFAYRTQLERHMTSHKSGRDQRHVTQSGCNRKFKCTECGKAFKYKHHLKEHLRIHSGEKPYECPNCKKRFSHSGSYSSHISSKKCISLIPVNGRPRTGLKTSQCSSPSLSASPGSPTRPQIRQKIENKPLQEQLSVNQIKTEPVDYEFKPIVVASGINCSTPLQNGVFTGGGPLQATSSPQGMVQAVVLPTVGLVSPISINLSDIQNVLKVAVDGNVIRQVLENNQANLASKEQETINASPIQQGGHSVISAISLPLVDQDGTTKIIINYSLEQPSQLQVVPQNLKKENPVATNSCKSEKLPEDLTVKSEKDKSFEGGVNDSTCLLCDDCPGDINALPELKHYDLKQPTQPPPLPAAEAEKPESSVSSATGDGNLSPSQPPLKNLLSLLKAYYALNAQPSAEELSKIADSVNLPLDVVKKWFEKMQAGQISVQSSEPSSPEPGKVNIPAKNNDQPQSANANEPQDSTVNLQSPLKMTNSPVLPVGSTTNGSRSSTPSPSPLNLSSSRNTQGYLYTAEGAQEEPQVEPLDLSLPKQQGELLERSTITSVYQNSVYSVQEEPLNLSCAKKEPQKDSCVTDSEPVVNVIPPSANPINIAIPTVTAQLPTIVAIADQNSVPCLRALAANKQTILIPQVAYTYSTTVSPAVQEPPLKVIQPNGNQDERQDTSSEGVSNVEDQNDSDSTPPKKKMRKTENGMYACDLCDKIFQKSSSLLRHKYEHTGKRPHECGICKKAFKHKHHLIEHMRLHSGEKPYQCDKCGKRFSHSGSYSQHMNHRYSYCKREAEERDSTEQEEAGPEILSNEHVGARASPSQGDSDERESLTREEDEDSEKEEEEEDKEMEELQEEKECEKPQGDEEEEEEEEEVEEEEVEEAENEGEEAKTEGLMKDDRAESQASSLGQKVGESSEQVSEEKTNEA", "experiment": "proximity ligation; endogenous proteins in fixed, permeabilised H157, H1299, 344SQ and 531LN2 cells; primary antibodies to ZEB1 and a NuRD member; Duolink In Situ Red Starter Mouse/Rabbit kit; confocal microscopy", "details": "remark: other sources report otherwise", "note": "Results are given in words; binding and its absence hold for the method and conditions named. Binding seen in cells or lysates may run through a third protein. Some results given as binding are weak or reduced against the parent protein; the word gives no strength.", "data": [{"binder": "B1", "values": [{"measurement": "binding", "value": "binds"}]}]}
